Results on 6 molecules are retold here after patent US8603949B2, “Libraries of optimized cytochrome P450 enzymes and the optimized P450 enzymes” (California Institute of Technology, priority 2003, dated 2013).

A short description of the data set: Folding by reduced CO difference spectroscopy (Soret band). It is filed as physicochemical. The conditions noted are these: for Folded: reduced CO difference spectroscopy; for λ max for Soret band: reduced CO difference spectrum.

Several values for one entry are separate records, joined by “and”; a condition that tells them apart may be missing. Equal values may be shown once.

B1: Chimera 277-365: CYP102A1 heme domain with residues 277-365 from CYP102A2 (protein)
chain: TIKEMPQPKTFGELKNLPLLNTDKPVQALMKIADELGEIFKFEAPGRVTRYLSSQRLIKEACDESRFDKNLSQALKFVRDFAGDGLATSWTHEKNWKKAHNILLPSFSQQAMKGYHAMMVDIAVQLVQKWERLNADEHIEVPEDMTRLTLDTIGLCGFNYRFNSFYRDQPHPFITSMVRALDEAMNKLQRANPDDPAYDENKRQFQEDIKVMNDLVDKIIADRKASGEQSDDLLTHMLNGKDPETGEPLDDENIRYQIITFLIAGHETTSGLLSFATYFLLKHPDKLKKAYEEVDRVLTDAAPTYKQVLELTYIRMILNESLRLWPTAPAFSLYPKEDTVIGGKFPITTNDRISVLIPQLHRDRDIWGDDVEEFRPERFENPSAIPQHAFKPFGNGQRACIGQQFALHEATLVLGMMLKHFDFEDHTNYELDIKETLTLKPEGFVVKAKSKKIPLGGIPSPST
modifications: Chimeric Cytochrome P450 heme group sequence from Bacillus megaterium and Bacillus subtilis
notes: CYP102A1 heme domain with residues 277-365 from CYP102A2
Regarding B1, the Folded entry is reported as “yes”; the “λ max for Soret band” value was 420 nm and 421 nm.

B2: Chimera 165-256M: mirror chimera of 165-256, sequences from opposite parents at every position (protein)
chain: KETSPIPQPKTFGPLGNLPLIDKDKPTLSLIKLAEEQGPIFQIHTPAGTTIVVSGHELVKEVCDEERFDKSIEGALEKVRAFSGDGLATSWTHEPNWRKAHNILMPTFSQRAMKDYHEKMVDIAVQLIQKWARLNPNEAVDVPGDMTRLTLDTIGLCGFNYRFNSFYRDQPHPFITSMVRALDEAMNKLQRANPDDPAYDENKRQFQEDIKVMNDLVDKIIADRKASGEQSDDLLTHMLNGKDPETGEPLDDENIRYQIITFLIAGHETTSGLLSFATYFLLKHPDKLKKAYEEVDRVLTDAAPTYKQVLELTYIRMILNESLRLWPTAPAFSLYPKEDTVIGGKFPITTNDRISVLIPQLHRDRDAWGKDAEEFRPERFEHQDQVPHHAYKPFGNGQRACIGMQFALHEATLVLGMILKYFTLIDHENYELDIKQTLTLKPGDFHISVQSRHQEAIHADVQAAE
modifications: Chimeric Cytochrome P450 heme group sequence from Bacillus megaterium and Bacillus subtilis
B2: the Folded entry is reported as “yes” and the “λ max for Soret band” value amounted to 448 nm.

B3: Chimera 191-335: CYP102A1 heme domain with residues 191-335 from CYP102A2 (protein)
chain: TIKEMPQPKTFGELKNLPLLNTDKPVQALMKIADELGEIFKFEAPGRVTRYLSSQRLIKEACDESRFDKNLSQALKFVRDFAGDGLATSWTHEKNWKKAHNILLPSFSQQAMKGYHAMMVDIAVQLVQKWERLNADEHIEVPEDMTRLTLDTIGLCGFNYRFNSFYRDQPHPFITSMVRALDEAMNKLQRLDVQDKLMVRTKRQFRYDIQTMFSLVDSIIAERRANGDQDEKDLLARMLNVEDPETGEKLDDENIRFQIITFLIAGHETTSGLLSFATYFLLKHPDKLKKAYEEVDRVLTDAAPTYKQVLELTYIRMILNESLRLWPTAPAFSLYPKEDTVLGGEYPLEKGDELMVLIPQLHRDKTIWGDDVEEFRPERFENPSAIPQHAFKPFGNGQRACIGQQFALHEATLVLGMMLKHFDFEDHTNYELDIKETLTLKPEGFVVKAKSKKIPLGGIPSPST
modifications: Chimeric Cytochrome P450 heme group sequence from Bacillus megaterium and Bacillus subtilis
notes: CYP102A1 heme domain with residues 191-335 from CYP102A2
B3: the Folded result is “yes” and the “λ max for Soret band” value turned out to be 449 nm.

B4: Chimera 285-341: CYP102A1 heme domain with residues 285-341 from CYP102A2 (protein)
chain: TIKEMPQPKTFGELKNLPLLNTDKPVQALMKIADELGEIFKFEAPGRVTRYLSSQRLIKEACDESRFDKNLSQALKFVRDFAGDGLATSWTHEKNWKKAHNILLPSFSQQAMKGYHAMMVDIAVQLVQKWERLNADEHIEVPEDMTRLTLDTIGLCGFNYRFNSFYRDQPHPFITSMVRALDEAMNKLQRANPDDPAYDENKRQFQEDIKVMNDLVDKIIADRKASGEQSDDLLTHMLNGKDPETGEPLDDENIRYQIITFLIAGHETTSGLLSFALYFLVKNPDKLKKAYEEVDRVLTDAAPTYKQVLELTYIRMILNESLRLWPTAPAFSLYPKEDTVIGGEYPLEKGDELMVLIPQLHRDKTIWGDDVEEFRPERFENPSAIPQHAFKPFGNGQRACIGQQFALHEATLVLGMMLKHFDFEDHTNYELDIKETLTLKPEGFVVKAKSKKIPLGGIPSPST
modifications: Chimeric Cytochrome P450 heme group sequence from Bacillus megaterium and Bacillus subtilis
notes: CYP102A1 heme domain with residues 285-341 from CYP102A2
Consider B4, for which the Folded entry is on record as “yes” and the “λ max for Soret band” value came out at 448 nm.

B5: Chimera 165-256: CYP102A1 heme domain with residues 165-256 from CYP102A2 (protein)
chain: TIKEMPQPKTFGELKNLPLLNTDKPVQALMKIADELGEIFKFEAPGRVTRYLSSQRLIKEACDESRFDKNLSQALKFVRDFAGDGLATSWTHEKNWKKAHNILLPSFSQQAMKGYHAMMVDIAVQLVQKWERLNADEHIEVPEDMTRLTLDTIGLCGFNYRFNSYYRETPHPFINSMVRALDEAMHQMQRLDVQDKLMVRTKRQFRYDIQTMFSLVDSIIAERRANGDQDEKDLLARMLNVEDPETGEKLDDENIRFQIITFLIAGHETTSGLLSFALYFLVKNPHVLQKAAEEAARVLVDPVPSYKQVKQLKYVGMVLNEALRLWPTAPAFSLYAKEDTVLGGEYPLEKGDELMVLIPQLHRDKTIWGDDVEEFRPERFENPSAIPQHAFKPFGNGQRACIGQQFALHEATLVLGMMLKHFDFEDHTNYELDIKETLTLKPEGFVVKAKSKKIPLGGIPSPST
modifications: Chimeric Cytochrome P450 heme group sequence from Bacillus megaterium and Bacillus subtilis
notes: CYP102A1 heme domain with residues 165-256 from CYP102A2
As for B5, the Folded entry was “yes” and the “λ max for Soret band” value amounted to 449 nm.

B6: Chimera 169-197: CYP102A1 heme domain with residues 169-197 from CYP102A2 (protein)
chain: TIKEMPQPKTFGELKNLPLLNTDKPVQALMKIADELGEIFKFEAPGRVTRYLSSQRLIKEACDESRFDKNLSQALKFVRDFAGDGLATSWTHEKNWKKAHNILLPSFSQQAMKGYHAMMVDIAVQLVQKWERLNADEHIEVPEDMTRLTLDTIGLCGFNYRFNSFYRDTPHPFINSMVRALDEAMHQMQRLDVQDKLYDENKRQFQEDIKVMNDLVDKIIADRKASGEQSDDLLTHMLNGKDPETGEPLDDENIRYQIITFLIAGHETTSGLLSFALYFLVKNPHVLQKAAEEAARVLVDPVPSYKQVKQLKYVGMVLNEALRLWPTAPAFSLYAKEDTVLGGEYPLEKGDELMVLIPQLHRDKTIWGDDVEEFRPERFENPSAIPQHAFKPFGNGQRACIGQQFALHEATLVLGMMLKHFDFEDHTNYELDIKETLTLKPEGFVVKAKSKKIPLGGIPSPST
modifications: Chimeric Cytochrome P450 heme group sequence from Bacillus megaterium and Bacillus subtilis
notes: CYP102A1 heme domain with residues 169-197 from CYP102A2
For the molecule B6, the Folded entry was “yes” and the “λ max for Soret band” value is 449 nm.
